For assay [1], the target named is T1, Transforming growth factor-β membrane associated protein (TIMAP), endogenous (human (endogenous in primary human glomerular ECs)) (UniProt Q96T49).
T1 sequence: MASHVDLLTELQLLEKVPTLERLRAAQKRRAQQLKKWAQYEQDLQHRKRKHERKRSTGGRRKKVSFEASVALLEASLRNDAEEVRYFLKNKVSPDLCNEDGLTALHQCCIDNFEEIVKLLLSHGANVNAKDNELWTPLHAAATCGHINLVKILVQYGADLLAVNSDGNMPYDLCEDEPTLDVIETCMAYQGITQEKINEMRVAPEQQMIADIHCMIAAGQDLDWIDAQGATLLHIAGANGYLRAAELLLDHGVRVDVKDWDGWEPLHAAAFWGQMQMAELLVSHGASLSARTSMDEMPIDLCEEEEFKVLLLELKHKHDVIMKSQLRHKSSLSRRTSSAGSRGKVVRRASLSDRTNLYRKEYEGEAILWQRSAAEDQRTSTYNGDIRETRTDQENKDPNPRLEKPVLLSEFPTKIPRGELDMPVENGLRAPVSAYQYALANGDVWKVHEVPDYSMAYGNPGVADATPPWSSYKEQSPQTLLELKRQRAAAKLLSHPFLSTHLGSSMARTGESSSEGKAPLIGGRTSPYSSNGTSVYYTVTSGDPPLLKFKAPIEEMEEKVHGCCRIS
As to the kind of experiment: co-IP; endogenous TIMAP immunoprecipitated from glomerular EC lysates with chicken anti-TIMAP IgY (control: nonimmune IgY), goat anti-chicken IgG beads, 4 °C; lysis buffer 50 mM Tris-HCl pH 7.5, 150 mM NaCl, 1.0% Nonidet P-40, 0.5% sodium deoxycholate; Western blot. In general terms: A western blot detects proteins with antibodies after separation by electrophoresis.

Chains of the proteins cited; added tags and fusions are not shown.
UniProt P62140: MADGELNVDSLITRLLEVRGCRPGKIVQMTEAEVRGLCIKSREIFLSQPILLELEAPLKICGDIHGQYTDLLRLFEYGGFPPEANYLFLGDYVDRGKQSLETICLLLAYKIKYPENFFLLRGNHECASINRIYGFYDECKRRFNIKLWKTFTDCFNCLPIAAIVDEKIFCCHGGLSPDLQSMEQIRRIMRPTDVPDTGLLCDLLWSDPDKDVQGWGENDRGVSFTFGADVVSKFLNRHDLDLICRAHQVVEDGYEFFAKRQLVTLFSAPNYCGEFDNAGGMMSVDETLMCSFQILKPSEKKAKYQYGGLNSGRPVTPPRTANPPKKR
UniProt P35579: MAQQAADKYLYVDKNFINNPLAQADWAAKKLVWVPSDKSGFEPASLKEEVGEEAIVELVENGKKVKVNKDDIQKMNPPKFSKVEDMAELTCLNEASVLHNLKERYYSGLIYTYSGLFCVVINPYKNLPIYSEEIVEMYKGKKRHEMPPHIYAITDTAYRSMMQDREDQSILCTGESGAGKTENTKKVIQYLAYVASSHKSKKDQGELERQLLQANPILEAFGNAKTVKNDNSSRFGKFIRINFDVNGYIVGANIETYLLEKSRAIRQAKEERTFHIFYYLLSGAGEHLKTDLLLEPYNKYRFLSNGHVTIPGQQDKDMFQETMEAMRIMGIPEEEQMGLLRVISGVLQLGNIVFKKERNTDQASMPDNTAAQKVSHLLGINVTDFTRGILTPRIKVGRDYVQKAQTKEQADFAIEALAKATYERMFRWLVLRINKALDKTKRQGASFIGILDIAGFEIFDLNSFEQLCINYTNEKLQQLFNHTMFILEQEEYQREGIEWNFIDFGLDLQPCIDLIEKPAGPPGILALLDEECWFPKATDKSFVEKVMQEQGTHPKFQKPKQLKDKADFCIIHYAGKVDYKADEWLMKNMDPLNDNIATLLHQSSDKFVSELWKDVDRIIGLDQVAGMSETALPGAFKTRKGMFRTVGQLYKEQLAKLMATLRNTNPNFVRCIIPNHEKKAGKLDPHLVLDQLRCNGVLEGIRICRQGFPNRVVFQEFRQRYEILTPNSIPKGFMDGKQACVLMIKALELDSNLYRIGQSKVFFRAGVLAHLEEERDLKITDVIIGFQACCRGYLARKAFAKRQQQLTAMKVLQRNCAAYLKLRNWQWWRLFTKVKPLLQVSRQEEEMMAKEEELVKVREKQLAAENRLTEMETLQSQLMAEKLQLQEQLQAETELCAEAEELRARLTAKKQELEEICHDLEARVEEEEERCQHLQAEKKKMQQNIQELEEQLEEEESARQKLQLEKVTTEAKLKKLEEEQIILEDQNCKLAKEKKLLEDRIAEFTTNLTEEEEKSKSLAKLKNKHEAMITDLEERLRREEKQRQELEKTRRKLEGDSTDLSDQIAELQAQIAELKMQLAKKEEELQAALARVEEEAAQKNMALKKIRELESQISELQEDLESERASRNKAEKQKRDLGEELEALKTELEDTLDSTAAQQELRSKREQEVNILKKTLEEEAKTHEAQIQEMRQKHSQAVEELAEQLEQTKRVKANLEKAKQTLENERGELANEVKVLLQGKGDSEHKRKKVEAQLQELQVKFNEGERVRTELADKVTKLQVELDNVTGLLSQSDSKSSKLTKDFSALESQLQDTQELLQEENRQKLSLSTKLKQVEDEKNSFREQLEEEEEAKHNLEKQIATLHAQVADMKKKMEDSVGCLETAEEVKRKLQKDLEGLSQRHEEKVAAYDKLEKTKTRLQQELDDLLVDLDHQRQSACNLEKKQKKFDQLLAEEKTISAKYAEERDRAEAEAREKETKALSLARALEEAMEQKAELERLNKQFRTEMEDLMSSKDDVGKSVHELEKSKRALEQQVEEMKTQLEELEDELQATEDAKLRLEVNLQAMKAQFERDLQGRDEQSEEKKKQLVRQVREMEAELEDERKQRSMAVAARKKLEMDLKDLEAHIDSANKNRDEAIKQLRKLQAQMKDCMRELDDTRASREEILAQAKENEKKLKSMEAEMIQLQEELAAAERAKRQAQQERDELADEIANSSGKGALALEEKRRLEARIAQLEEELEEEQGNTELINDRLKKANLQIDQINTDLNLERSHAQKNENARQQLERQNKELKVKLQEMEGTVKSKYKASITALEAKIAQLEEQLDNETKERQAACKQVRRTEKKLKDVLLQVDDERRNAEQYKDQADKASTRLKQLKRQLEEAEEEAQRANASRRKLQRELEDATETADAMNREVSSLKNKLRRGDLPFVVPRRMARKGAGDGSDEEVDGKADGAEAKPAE

For assay [2], the target named is catalytic protein phosphatase 1 subunit PP1cβ, endogenous (human (endogenous in primary human glomerular ECs)) (UniProt P62140). As to the kind of experiment: pull-down.
For assay [3] the target is unchanged. The assay is described as follows: co-IP; PP1cβ immunoprecipitated with a PP1cβ antibody from lysates of glomerular ECs overexpressing GFP-TIMAP^WT (adenoviral); Western blot.

These are yes or no findings as the source states them, for the method shown. Binding seen in cells or lysates may run through a third protein. Some entries that bind do so weakly or less than the wild type. For some assays here: Where a sequence is shown, tags or fusion partners need not be part of it.

“catalytic protein phosphatase 1 subunit PP1cβ, endogenous (from UniProt P62140 1-327) (enzyme)”: the binding entry in assay [1] is “binds”. Still for that read-out and setting: in the case of “Myosin IIA heavy chain, endogenous (from UniProt P35579 1-1960)” it was “binds”.

B1: GFP-TIMAP^S333E/S337E (protein, UniProt Q96T49 1-567)
chain: MASHVDLLTELQLLEKVPTLERLRAAQKRRAQQLKKWAQYEQDLQHRKRKHERKRSTGGRRKKVSFEASVALLEASLRNDAEEVRYFLKNKVSPDLCNEDGLTALHQCCIDNFEEIVKLLLSHGANVNAKDNELWTPLHAAATCGHINLVKILVQYGADLLAVNSDGNMPYDLCEDEPTLDVIETCMAYQGITQEKINEMRVAPEQQMIADIHCMIAAGQDLDWIDAQGATLLHIAGANGYLRAAELLLDHGVRVDVKDWDGWEPLHAAAFWGQMQMAELLVSHGASLSARTSMDEMPIDLCEEEEFKVLLLELKHKHDVIMKSQLRHKSSLERRTESAGSRGKVVRRASLSDRTNLYRKEYEGEAILWQRSAAEDQRTSTYNGDIRETRTDQENKDPNPRLEKPVLLSEFPTKIPRGELDMPVENGLRAPVSAYQYALANGDVWKVHEVPDYSMAYGNPGVADATPPWSSYKEQSPQTLLELKRQRAAAKLLSHPFLSTHLGSSMARTGESSSEGKAPLIGGRTSPYSSNGTSVYYTVTSGDPPLLKFKAPIEEMEEKVHGCCRIS
For the molecule B1, the binding entry in assay [2] was “binds”.

B2: GFP-TIMAP^S333A/S337A (protein, UniProt Q96T49 1-567)
chain: MASHVDLLTELQLLEKVPTLERLRAAQKRRAQQLKKWAQYEQDLQHRKRKHERKRSTGGRRKKVSFEASVALLEASLRNDAEEVRYFLKNKVSPDLCNEDGLTALHQCCIDNFEEIVKLLLSHGANVNAKDNELWTPLHAAATCGHINLVKILVQYGADLLAVNSDGNMPYDLCEDEPTLDVIETCMAYQGITQEKINEMRVAPEQQMIADIHCMIAAGQDLDWIDAQGATLLHIAGANGYLRAAELLLDHGVRVDVKDWDGWEPLHAAAFWGQMQMAELLVSHGASLSARTSMDEMPIDLCEEEEFKVLLLELKHKHDVIMKSQLRHKSSLARRTASAGSRGKVVRRASLSDRTNLYRKEYEGEAILWQRSAAEDQRTSTYNGDIRETRTDQENKDPNPRLEKPVLLSEFPTKIPRGELDMPVENGLRAPVSAYQYALANGDVWKVHEVPDYSMAYGNPGVADATPPWSSYKEQSPQTLLELKRQRAAAKLLSHPFLSTHLGSSMARTGESSSEGKAPLIGGRTSPYSSNGTSVYYTVTSGDPPLLKFKAPIEEMEEKVHGCCRIS
B2: the binding entry in assay [2] is on record as “binds”.

B3: GFP-TIMAP^WT (protein, UniProt Q96T49 1-567)
chain: MASHVDLLTELQLLEKVPTLERLRAAQKRRAQQLKKWAQYEQDLQHRKRKHERKRSTGGRRKKVSFEASVALLEASLRNDAEEVRYFLKNKVSPDLCNEDGLTALHQCCIDNFEEIVKLLLSHGANVNAKDNELWTPLHAAATCGHINLVKILVQYGADLLAVNSDGNMPYDLCEDEPTLDVIETCMAYQGITQEKINEMRVAPEQQMIADIHCMIAAGQDLDWIDAQGATLLHIAGANGYLRAAELLLDHGVRVDVKDWDGWEPLHAAAFWGQMQMAELLVSHGASLSARTSMDEMPIDLCEEEEFKVLLLELKHKHDVIMKSQLRHKSSLSRRTSSAGSRGKVVRRASLSDRTNLYRKEYEGEAILWQRSAAEDQRTSTYNGDIRETRTDQENKDPNPRLEKPVLLSEFPTKIPRGELDMPVENGLRAPVSAYQYALANGDVWKVHEVPDYSMAYGNPGVADATPPWSSYKEQSPQTLLELKRQRAAAKLLSHPFLSTHLGSSMARTGESSSEGKAPLIGGRTSPYSSNGTSVYYTVTSGDPPLLKFKAPIEEMEEKVHGCCRIS
B3: the binding result in assay [3] is given as “binds”.

The values above are taken from paper PMC6737228.
